Reference: PubChem BioAssay AID1259308 (NCATS, 2017)
This is one part, drawn at random, of about 59,000 deposited reagents. About 1,510 of them (2.6%) were called active. 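Calls use total luciferase alone and ignore viability, so some active siRNAs may act by altering cell number.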 The numbers tell different reagents against one gene apart. Further read-outs or replicates are left out here.

Purpose: 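Genes whose loss raises luciferase production in HEK293 cells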 (primary screen)
System: human HEK293 embryonic kidney cells stably expressing firefly luciferase (HEK-CMV-Luc2-Hygro)
Knock-down reagent: single siRNA against human genes, 0.8 pmol siRNA per well
Time to read-out: 72 h
Detection: 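Luciferase light (ONE-Glo) measured on one replicate plate set and viability (CellTiter-Glo) on the other, scaled to a negative control siRNA, with robust z-scores and luciferase per cell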
Scale: total luciferase, z-score and total luciferase, % of control: higher = more reporter protein produced
Hit rule: 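An siRNA counts as active if its total luciferase robust z-score exceeds 3; genes with two or more such siRNAs out of three were retested with fresh siRNAs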
Meaning of the calls: active = raised luciferase; inactive = no rise

Depletion of LAMTOR3 (late endosomal/lysosomal adaptor, MAPK and MTOR activator 3) #1 gave: total luciferase, z-score 1.69; total luciferase, % of control 115; inactive.
Knock-down of LAMTOR3 (late endosomal/lysosomal adaptor, MAPK and MTOR activator 3) #2 gave: total luciferase, z-score -0.258; total luciferase, % of control 76.8; inactive.
Silencing of LAMTOR3 (late endosomal/lysosomal adaptor, MAPK and MTOR activator 3) #3 resulted in: total luciferase, z-score 0.0106; total luciferase, % of control 82.1; inactive.
With knock-down of KBTBD7 (kelch repeat and BTB domain containing 7) #1, the record shows total luciferase, z-score 0.312; total luciferase, % of control 88.1; inactive.
Against KBTBD7 (kelch repeat and BTB domain containing 7) #2, the entry reads total luciferase, z-score -0.298; total luciferase, % of control 76; inactive.
Knock-down of KBTBD7 (kelch repeat and BTB domain containing 7) #3 resulted in: total luciferase, z-score 1.42; total luciferase, % of control 110; inactive.

2 entries from above, set out differently:
gene,reagent,"total luciferase, z-score","total luciferase, % of control",Outcome
"LAMTOR3 (late endosomal/lysosomal adaptor, MAPK and MTOR activator 3)",2,-0.258,76.8,inactive
"LAMTOR3 (late endosomal/lysosomal adaptor, MAPK and MTOR activator 3)",3,0.0106,82.1,inactive

The results go on.
Against PAPLN (papilin, proteoglycan like sulfated glycoprotein) #1, the values are total luciferase, z-score 0.238; total luciferase, % of control 86.6; inactive.
For PAPLN (papilin, proteoglycan like sulfated glycoprotein) #2, the values are total luciferase, z-score 0.471; total luciferase, % of control 91.3; inactive.
After knock-down of PAPLN (papilin, proteoglycan like sulfated glycoprotein) #3, the screen gave total luciferase, z-score -0.661; total luciferase, % of control 68.7; inactive.
Knock-down of PKIB (cAMP-dependent protein kinase inhibitor beta) #1 came out at: total luciferase, z-score 0.232; total luciferase, % of control 86.5; inactive.
PKIB (cAMP-dependent protein kinase inhibitor beta) #2 showed total luciferase, z-score -0.452; total luciferase, % of control 72.9; inactive.
Depletion of PKIB (cAMP-dependent protein kinase inhibitor beta) #3 resulted in: total luciferase, z-score 1.16; total luciferase, % of control 105; inactive.
